PubChem BioAssay AID1671190 (National Center for Advancing Translational Sciences (NCATS), 2021)
The whole screen tested about 580,000 compounds, of which about 6,100 (1.1%) were called active. Inconclusive means that the source gave no clear call. Such entries were picked first, then a sample of the others. The call rests on the fitted dose curve; in most records, active means well fitted inhibition curve with a large enough effect; inconclusive means small, poorly fitted or top-dose-only effect, or another doubt; inactive means no such curve, though single readings can be large or run the other way. Potencies beside an inconclusive call are fits to weak or partial responses and may not hold up.

Protein sequences, listed by entry. Tags and fused reporters are not part of them. Lines headed by an entry give the natural chain unless they say otherwise; changes in a name come on top.
UniProt P18054: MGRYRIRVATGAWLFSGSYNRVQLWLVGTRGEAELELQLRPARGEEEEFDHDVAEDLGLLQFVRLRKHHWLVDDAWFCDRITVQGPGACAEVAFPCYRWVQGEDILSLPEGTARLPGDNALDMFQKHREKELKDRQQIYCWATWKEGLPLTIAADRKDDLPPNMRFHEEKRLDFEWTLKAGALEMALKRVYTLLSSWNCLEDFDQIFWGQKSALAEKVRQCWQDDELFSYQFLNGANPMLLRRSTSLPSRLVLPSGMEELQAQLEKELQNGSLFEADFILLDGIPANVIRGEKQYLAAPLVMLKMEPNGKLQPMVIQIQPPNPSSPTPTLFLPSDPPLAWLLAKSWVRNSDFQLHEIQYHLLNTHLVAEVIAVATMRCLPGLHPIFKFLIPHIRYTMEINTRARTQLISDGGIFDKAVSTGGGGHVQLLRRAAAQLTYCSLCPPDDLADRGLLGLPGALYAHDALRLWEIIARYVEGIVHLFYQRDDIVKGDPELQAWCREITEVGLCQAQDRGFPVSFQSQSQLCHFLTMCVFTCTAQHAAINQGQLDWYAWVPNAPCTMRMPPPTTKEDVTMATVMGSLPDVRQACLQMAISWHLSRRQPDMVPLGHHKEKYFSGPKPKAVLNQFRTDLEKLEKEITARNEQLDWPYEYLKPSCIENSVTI

The compounds below were run against Polyunsaturated fatty acid lipoxygenase ALOX12 (Homo sapiens) (UniProt P18054) (assay: Primary qHTS assay for inhibitors of human arachidonate 12S-lipoxygenase (ALOX12): Round 2). Conditions: purified 12hLO, xylenol orange hydroperoxide absorbance; activity change, negative = inhibition: at 108 µM (top of the series) unless noted.
Summary of the method: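 Purified human 12hLO at 150 nM in 25 mM Hepes, 0.01% Triton X-100, pH 7.0, preincubated 15 min at room temperature with compound. Reaction started with 40 uM arachidonic acid, 30 min at room temperature. Hydroperoxide measured by Fe-xylenol orange, 573/405 nm absorbance ratio.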
On the % scale 0 is the no-effect control and ±100 the full control effect; potency means the concentration at half of the fitted maximal effect.

Structure (SMILES)	activity change, negative = inhibition	Potency
C/C=C1\NC(=O)[C@H](CC(N)=O)N(C)C(=O)C([C@@H](C)O)NC(=O)C(CCCc2ccc(OC)cc2)NC(=O)[C@H](C(C)C)NC(=O)/C(=C\C)NC(=O)[C@H](O)[C@@H](C[C@@H](O)CCCCCCC)NC(=O)[C@H](C)NC(=O)CN(C)C(=O)[C@H](CCC(N)=O)NC1=O (some centres undefined)	inactive: 8.29%	–
CCSc1nnc(NC(=O)CSc2sc3c(O)cc(=O)[nH]c3c2C#N)s1	–	inconclusive: 35.5 µM [inhibitor, partial curve]
COC(=O)[C@@H]1Cc2c([nH]c3ccccc23)[C@H]2C[C@@H](N3CCOCC3)C[C@@H](c3ccc(OC(F)(F)F)cc3)N21	inactive: -4.21%	–
COc1ccc(C2CC(=O)c3cc(-c4nc(-c5ccc(Cl)cc5)cs4)c(=O)[nH]c3C2)cc1OC (centres undefined)	–	inconclusive: 112 µM [inhibitor, single point]
Cc1ccc(Cn2nc(C)c3cc(C(=O)N4CCN(CC(=O)N5CCCC5)CC4)sc32)cc1	inactive: -6.02%	–
O=C(NCc1ccc(OCC(F)(F)F)cc1)C1CCN(c2nc3ccccc3o2)CC1	inactive: 7.07%	–
O=C(O)c1nsc(Cl)c1Cl	–	inconclusive: 35.5 µM [inhibitor, partial curve, poor fit]
O=C(NCC(=O)N1CCCCCC1)C1CCCN(S(=O)(=O)c2ccc(Cl)cc2)C1 (centres undefined)	–	inconclusive: 50.1 µM [inhibitor, single point]
O=C(NC(Cc1c[nH]c2ccccc12)C(=O)N/N=C/c1cccc2ccccc12)c1cccs1 (centres undefined)	inactive: -0.655%	–
Cc1cccc(NC(=O)CSc2nnc(NC(=O)CN3CCCCC3)s2)c1	inactive: 22.6%	–
Cc1cc(NC(=O)NC2(C(F)(F)F)Oc3ccc(Cl)cc3O2)no1 (centres undefined)	–	inconclusive: 20 µM [inhibitor, full curve, poor fit]
NNc1ncnc2c1cnn2-c1ccccc1	inactive: 0%	–
CC(C)[C@H](NC(=O)C1CCC(CNC(=O)[C@@H]2CCCN2C(=O)OC(C)(C)C)CC1)C(=O)O (some centres undefined)	inactive: 1.69%	–
CCCCC1c2cc(c(O)cc2O)C(CCCC)c2cc(c(O)cc2O)C(CCCC)c2cc(c(O)cc2O)C(CCCC)c2cc1c(O)cc2O (centres undefined)	–	inconclusive: 7.94 µM [inhibitor, full curve, poor fit]
Cc1ccc(NC(=O)c2ccc3ncsc3c2)cc1S(=O)(=O)N(C)C	–	inconclusive: 50.1 µM [inhibitor, partial curve, poor fit]
CC(C)C(=O)Nc1sc2c(c1C#N)CCCCC2	–	inconclusive: 35.5 µM [inhibitor, partial curve, poor fit]
CCOC(=O)c1cccc(NC(=O)c2ccc(-n3cnc(NC(C)=O)c3)cc2)c1	inactive: -1.09%	–

Structure (SMILES)	activity change, negative = inhibition	Potency
S=c1nc(C2CCCCC2)[nH]c2ccccc12	inactive: -13.6%	–
COCCO[C@H]1C(=O)N(C2CCN(Cc3ccc(C#N)cc3)CC2)[C@H]1c1ccncc1	inactive: 33.6%	–
CN1CCN(C2CCN(CCc3ccccc3)C2=O)CC1 (centres undefined)	inactive: 55.7%	–
COc1ccc2nc(C[C@@H]3C[C@@H](C(C)C)[C@H](CNC(=O)C4CCCCC4)C=C3C)[nH]c2c1	inactive: 22.3% [at 176 µM]	–
C#CCSc1nc2sc3c(c2c(=O)n1C)CCC3	inactive: -6.11%	–
COc1cc(OC)cc(C(=O)NCC(=O)N2CCN(S(=O)(=O)c3ccccc3F)CC2)c1	–	inconclusive: 35.5 µM [inhibitor, single point]
COc1ccc(C(=O)/C=C/c2cccc(O)c2)cc1	–	inconclusive: 28.2 µM [inhibitor, partial curve, poor fit]
CC(C)(C)NC(=O)NC(=O)CN1CCN(S(=O)(=O)c2ccccc2)CC1	–	inconclusive: 5.01 µM [inhibitor, partial curve]
O=C(NC1CC1)C1(c2ccc(Cl)cc2)CC1	–	inconclusive: 17.8 µM [inhibitor, full curve, poor fit]
S=c1[nH]nc(-c2cc(-c3ccccn3)nc3ccccc23)o1	inactive: -19.2%	–
CCC1CCCCN1C(=O)CSc1nnc(-c2cccs2)n1N (centres undefined)	inactive: 5.35%	–
CC(C)Oc1ccc(-c2nc3c(C#N)c[nH]n3c2NC2CCCCC2)cc1	inactive: 73.5%	–
CC(C)NC(=O)CC[C@@H]1CNC(=O)[C@@H]2C[C@H](NC(=S)NCc3ccco3)CN12	inactive: 31% [at 176 µM]	–
COc1ccc(-c2cc(=O)[nH]c(=S)[nH]2)cc1	–	inconclusive: 50.1 µM [inhibitor, partial curve, poor fit]
CCC1(C2CCN(Cc3ccc(C)s3)CC2)NC(=O)N(CC2COc3ccccc3O2)C1=O (centres undefined)	–	inconclusive: 112 µM [inhibitor, single point]
Fc1cccc(CCN2CCN=C2Nc2ccccc2)c1	–	inconclusive: 44.7 µM [inhibitor, full curve, poor fit]
Cc1ccc(Cc2ccc(C(=O)O)o2)cc1	inactive: -34.2%	–

An excerpt of these results, in CSV form:
Structure (SMILES),"activity change, negative = inhibition",Potency
O=C(O)c1nsc(Cl)c1Cl,–,"inconclusive: 35.5 µM [inhibitor, partial curve, poor fit]"
O=C(NCC(=O)N1CCCCCC1)C1CCCN(S(=O)(=O)c2ccc(Cl)cc2)C1 (centres undefined),–,"inconclusive: 50.1 µM [inhibitor, single point]"
